According to the supplement of paper PMC10849652:
The list shows a part of the results.

Sequences of proteins named here, by UniProt entry; tags and fusion partners are left off. A change or cut given only in a name is not applied to a line headed by its entry.
UniProt O15270: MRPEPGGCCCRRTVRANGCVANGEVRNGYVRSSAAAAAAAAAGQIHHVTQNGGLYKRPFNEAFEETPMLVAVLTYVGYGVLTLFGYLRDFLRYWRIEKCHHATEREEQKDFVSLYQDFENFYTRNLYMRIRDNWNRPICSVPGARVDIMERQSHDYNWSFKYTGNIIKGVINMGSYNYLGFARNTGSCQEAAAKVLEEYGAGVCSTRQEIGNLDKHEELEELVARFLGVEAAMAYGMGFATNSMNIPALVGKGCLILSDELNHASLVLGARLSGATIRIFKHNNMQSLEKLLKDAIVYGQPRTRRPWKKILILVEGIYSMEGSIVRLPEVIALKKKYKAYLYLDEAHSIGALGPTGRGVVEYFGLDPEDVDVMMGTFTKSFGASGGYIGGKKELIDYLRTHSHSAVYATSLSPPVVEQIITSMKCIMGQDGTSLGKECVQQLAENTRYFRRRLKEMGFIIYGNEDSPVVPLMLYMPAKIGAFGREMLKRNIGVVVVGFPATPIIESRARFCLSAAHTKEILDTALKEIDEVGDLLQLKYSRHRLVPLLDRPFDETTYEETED
UniProt Q9BXP5: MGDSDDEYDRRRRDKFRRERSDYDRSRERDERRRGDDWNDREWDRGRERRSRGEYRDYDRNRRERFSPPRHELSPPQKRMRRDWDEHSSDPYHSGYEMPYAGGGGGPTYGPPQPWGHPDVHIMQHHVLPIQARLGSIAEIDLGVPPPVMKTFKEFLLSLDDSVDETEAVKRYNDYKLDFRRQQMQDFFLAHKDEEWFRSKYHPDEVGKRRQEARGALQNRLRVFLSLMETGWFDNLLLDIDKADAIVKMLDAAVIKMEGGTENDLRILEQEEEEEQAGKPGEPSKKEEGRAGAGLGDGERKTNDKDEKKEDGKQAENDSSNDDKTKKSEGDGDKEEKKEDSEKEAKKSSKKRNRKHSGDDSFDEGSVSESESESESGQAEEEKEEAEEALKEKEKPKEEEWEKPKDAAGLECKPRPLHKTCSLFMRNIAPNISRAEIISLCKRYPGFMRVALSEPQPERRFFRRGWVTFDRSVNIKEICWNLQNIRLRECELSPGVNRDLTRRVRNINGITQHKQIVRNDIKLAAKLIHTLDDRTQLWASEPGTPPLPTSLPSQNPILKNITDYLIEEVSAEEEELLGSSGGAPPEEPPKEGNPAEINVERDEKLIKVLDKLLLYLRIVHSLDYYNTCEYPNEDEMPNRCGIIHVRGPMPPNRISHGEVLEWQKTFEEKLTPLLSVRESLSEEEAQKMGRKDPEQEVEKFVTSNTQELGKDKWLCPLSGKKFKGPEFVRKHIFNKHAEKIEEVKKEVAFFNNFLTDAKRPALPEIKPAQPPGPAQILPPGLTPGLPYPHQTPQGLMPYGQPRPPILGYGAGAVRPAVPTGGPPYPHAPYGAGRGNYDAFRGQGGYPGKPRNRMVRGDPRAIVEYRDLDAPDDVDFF
UniProt Q8TCT8: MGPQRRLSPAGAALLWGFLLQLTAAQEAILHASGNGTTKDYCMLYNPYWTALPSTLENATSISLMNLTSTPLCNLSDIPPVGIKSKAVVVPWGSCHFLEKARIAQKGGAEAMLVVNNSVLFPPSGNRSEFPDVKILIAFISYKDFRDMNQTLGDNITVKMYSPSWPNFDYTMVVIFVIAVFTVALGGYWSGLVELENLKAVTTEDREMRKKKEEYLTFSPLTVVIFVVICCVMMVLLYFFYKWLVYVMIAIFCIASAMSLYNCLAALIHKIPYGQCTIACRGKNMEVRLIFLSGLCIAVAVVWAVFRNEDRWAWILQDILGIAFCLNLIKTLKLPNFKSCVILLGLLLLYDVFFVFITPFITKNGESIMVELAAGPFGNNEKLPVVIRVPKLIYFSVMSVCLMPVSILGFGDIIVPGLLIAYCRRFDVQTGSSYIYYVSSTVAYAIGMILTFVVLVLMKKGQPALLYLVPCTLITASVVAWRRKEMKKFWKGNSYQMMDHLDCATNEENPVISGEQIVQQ
UniProt Q8N3U4: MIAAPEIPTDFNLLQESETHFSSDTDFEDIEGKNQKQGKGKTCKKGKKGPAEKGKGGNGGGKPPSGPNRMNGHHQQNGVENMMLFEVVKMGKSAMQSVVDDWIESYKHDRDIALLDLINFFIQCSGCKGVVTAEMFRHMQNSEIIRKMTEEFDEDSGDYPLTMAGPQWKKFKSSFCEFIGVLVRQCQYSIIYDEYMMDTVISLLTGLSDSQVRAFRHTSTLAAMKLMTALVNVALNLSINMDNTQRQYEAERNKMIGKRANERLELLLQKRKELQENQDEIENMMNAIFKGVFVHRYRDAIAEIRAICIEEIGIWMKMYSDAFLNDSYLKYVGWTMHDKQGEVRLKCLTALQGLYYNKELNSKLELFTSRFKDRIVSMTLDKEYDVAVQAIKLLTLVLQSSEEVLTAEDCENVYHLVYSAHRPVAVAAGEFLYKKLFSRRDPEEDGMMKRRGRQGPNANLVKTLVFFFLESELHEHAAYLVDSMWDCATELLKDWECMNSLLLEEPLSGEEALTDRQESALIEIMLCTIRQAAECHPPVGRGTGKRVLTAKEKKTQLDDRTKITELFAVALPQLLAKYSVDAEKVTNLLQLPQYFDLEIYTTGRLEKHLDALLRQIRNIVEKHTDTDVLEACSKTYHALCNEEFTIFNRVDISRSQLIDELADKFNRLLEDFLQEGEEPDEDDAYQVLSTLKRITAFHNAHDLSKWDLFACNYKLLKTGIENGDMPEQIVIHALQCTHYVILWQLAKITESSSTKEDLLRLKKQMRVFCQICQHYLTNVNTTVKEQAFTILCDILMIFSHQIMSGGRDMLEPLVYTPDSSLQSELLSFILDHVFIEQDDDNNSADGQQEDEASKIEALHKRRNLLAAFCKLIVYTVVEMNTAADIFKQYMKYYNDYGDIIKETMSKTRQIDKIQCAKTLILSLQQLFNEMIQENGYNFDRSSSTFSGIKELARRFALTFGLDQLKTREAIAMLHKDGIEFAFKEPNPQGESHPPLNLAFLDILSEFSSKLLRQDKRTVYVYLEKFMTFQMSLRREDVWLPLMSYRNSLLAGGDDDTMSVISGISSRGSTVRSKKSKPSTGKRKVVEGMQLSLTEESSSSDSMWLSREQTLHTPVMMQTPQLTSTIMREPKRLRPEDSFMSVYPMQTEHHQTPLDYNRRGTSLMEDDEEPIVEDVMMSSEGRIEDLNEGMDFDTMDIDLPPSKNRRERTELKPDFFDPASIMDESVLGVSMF
UniProt P11277, whole entry, looked up: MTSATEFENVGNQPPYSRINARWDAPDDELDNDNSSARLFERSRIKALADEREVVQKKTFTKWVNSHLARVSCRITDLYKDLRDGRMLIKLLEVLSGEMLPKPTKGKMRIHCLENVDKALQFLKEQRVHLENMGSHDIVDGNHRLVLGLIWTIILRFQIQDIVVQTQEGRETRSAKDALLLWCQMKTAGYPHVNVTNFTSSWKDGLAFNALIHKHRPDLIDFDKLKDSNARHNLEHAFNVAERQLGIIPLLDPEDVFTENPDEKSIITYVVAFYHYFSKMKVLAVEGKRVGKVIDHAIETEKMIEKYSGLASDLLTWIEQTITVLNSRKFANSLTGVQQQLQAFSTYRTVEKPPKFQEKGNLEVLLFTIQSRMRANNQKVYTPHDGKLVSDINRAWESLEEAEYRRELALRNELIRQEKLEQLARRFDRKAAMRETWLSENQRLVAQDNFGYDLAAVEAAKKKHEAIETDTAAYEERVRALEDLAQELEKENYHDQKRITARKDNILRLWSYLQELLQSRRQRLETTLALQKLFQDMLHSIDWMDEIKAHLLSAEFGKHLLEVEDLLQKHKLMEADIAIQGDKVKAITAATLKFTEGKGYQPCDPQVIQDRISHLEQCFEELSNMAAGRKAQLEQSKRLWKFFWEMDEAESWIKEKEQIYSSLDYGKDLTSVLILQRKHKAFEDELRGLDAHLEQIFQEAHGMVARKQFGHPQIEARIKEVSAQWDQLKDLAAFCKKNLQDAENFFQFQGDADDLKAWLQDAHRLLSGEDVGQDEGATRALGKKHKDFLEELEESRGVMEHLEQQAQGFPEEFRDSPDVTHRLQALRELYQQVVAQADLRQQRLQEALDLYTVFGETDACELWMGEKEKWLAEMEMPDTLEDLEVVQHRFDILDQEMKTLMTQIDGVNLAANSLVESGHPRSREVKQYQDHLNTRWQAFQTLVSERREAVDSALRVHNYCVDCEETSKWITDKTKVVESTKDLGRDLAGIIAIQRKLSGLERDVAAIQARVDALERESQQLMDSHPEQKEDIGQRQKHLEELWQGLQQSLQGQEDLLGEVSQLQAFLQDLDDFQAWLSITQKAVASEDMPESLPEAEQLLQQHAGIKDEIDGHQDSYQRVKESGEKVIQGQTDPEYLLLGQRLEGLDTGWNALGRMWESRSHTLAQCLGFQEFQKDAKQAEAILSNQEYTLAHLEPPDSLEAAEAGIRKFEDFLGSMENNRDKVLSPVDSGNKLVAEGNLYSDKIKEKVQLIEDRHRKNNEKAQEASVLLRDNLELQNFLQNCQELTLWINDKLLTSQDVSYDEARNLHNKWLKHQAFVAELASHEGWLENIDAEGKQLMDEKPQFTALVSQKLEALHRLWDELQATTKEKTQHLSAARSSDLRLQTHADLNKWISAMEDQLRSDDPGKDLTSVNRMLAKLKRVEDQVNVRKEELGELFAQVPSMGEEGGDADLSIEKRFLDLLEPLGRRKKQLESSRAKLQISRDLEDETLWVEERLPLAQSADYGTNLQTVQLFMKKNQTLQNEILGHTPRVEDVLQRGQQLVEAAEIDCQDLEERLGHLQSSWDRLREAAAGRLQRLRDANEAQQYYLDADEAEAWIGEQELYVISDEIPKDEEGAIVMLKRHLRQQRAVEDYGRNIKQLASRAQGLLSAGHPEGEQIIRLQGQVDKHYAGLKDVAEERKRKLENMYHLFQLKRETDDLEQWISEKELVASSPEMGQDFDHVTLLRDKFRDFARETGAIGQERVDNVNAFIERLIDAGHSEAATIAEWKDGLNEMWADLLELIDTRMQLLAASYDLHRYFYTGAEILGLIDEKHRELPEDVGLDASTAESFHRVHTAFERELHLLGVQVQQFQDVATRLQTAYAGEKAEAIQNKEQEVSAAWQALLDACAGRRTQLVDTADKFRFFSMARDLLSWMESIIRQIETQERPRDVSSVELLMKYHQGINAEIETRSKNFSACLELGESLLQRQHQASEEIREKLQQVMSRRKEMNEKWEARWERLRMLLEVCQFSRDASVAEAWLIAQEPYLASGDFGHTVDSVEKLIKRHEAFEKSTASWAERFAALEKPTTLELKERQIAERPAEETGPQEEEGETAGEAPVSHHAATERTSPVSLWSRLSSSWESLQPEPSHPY
UniProt O43805: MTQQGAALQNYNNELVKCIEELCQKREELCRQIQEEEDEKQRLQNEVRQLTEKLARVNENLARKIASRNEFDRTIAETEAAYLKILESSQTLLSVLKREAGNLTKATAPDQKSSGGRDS
UniProt Q07955, whole entry, looked up: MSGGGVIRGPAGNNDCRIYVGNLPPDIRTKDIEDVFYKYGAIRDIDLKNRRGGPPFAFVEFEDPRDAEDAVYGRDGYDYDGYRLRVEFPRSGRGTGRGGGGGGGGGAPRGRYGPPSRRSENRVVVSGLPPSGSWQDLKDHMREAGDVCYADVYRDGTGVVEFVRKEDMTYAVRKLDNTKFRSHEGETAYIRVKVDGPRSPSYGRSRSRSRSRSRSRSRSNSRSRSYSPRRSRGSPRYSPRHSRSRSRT
UniProt P61009: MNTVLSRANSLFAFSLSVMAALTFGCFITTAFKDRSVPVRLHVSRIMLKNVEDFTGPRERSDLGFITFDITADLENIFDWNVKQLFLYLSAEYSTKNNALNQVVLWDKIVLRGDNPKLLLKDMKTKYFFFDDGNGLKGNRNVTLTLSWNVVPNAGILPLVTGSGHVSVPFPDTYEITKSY
UniProt Q9HD15: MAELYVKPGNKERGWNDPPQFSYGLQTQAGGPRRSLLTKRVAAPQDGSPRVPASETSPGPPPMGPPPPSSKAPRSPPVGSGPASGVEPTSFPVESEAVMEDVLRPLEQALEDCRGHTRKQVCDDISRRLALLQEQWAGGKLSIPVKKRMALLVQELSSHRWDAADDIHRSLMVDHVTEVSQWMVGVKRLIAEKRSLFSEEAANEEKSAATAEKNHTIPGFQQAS
UniProt P50502: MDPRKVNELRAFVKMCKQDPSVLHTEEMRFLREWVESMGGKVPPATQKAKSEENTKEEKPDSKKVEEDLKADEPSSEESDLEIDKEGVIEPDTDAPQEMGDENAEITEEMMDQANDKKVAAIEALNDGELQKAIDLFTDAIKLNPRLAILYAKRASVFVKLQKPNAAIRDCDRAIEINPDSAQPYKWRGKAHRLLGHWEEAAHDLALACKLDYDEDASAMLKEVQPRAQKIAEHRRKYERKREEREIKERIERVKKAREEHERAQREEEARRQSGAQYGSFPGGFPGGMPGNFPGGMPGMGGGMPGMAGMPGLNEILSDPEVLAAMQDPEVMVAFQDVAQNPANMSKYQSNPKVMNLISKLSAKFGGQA

Tests used:
Assay in all cases: log2 fold change, soluble protein after heating vs DMSO (PISA); higher = thermal stabilisation; K562 cells, 10 uM, 30 min; active = over 0.2 and 3.5 SD of the protein, either way, in both replicates (recomputed)
[1] = compound: CN1CCN(CCOc2cc(OC3CCOCC3)c3c(Nc4c(Cl)ccc5c4OCO5)ncnc3c2)CC1 [saracatinib]
Procedure, shortened: (§1)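 Values are thermal stability changes relative to control samples and are taken from duplicates. They are stated as log2 fold changes. Before quantification by TMTpro 16plex LC-MS/MS with equalised channel sums, K562 cells at 2×10^6 cells/mL were treated with 10 μM compound for 30 min, heated in aliquots for 3 min across 48°C-58°C, pooled, extracted in PBS with 0.5% NP-40 at 4°C, and centrifuged at 21,000xg for 90 min to give the soluble supernatant.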

[2] = compound: CN1CCN(c2nc(C3=C(c4c[nH]c5ccccc45)C(=O)NC3=O)c3ccccc3n2)CC1 [sotrastaurin]
Procedure, shortened: as §1

[3] = compound: CN1CC[C@H](c2c(O)cc(O)c3c(=O)cc(-c4ccccc4Cl)oc23)[C@H](O)C1 [alvocidib]
Procedure, shortened: as §1

[4] = compound: CN1CCc2c(c3ccccc3n2Cc2ccc(C(=O)NO)cc2)C1 [Tubastatin A]
Procedure, shortened: as §1

[5] = compound: CNC(=O)C1=CC=CC=C1NC2=NC(=NC=C2Cl)NC3=C(C=C(C=C3)N4CCOCC4)OC
Procedure, shortened: as §1

[6] = compound: CNC(=O)c1ccc(Nc2ncc(C(F)(F)F)c(NCc3nccnc3N(C)S(C)(=O)=O)n2)cc1 [defactinib]
Procedure, shortened: as §1

[7] = compound: CNCc1ccc(-c2[nH]c3cc(F)cc4c3c2CCNC4=O)cc1 [rucaparib]
Procedure, shortened: as §1

[8] = compound: CNc1nc(-c2ccc3c(N)n[nH]c3c2)cc(N2C[C@@H](C(=O)NC3CCCCC3)CC[C@H]2C)n1
Procedure, shortened: as §1

[9] = compound: COC(=O)N[C@@H](C)CNc1nccc(-c2cn(C(C)C)nc2-c2cc(Cl)cc(NS(C)(=O)=O)c2F)n1 [encorafenib]
Procedure, shortened: as §1

[10] = compound: COC(=O)[C@H](CCSC)NC(=O)C1=C(C=C(C=C1)NC[C@H](CS)N)C2=CC=CC=C2
Procedure, shortened: as §1

Measured: log2 fold change

SPTLC2 (UniProt O15270)
inactive: [1] 0.029 | [2] 0.021 | [3] -0.048 | [4] 0.005 | [5] 0.028 | [6] -0.038 | [7] -0.079 | [8] 0.026 | [9] 0.002 | [10] 0.015

SPG7 (UniProt Q9UQ90)
inactive: [1] -0.029 | [2] 0.036 | [3] 0.036 | [4] -0.008 | [5] 0.004 | [6] -0.025 | [7] -0.02 | [8] -0.02 | [9] 0.004 | [10] -0.038

SPTAN1 isoform 2 (UniProt Q13813)
inactive: [1] 0.099 | [2] -0.223 | [3] -0.045 | [4] -0.002 | [5] 0.034 | [6] -0.046 | [7] -0.023 | [8] -0.109 | [9] -0.025 | [10] -0.001

SRRT (UniProt Q9BXP5)
inactive: [1] -0.066 | [2] -0.197 | [3] -0.242 | [4] 0.143 | [5] -0.047 | [6] -0.3 | [7] -0.005 | [8] 0.147 | [9] 0.136 | [10] -0.081

SPPL2A (UniProt Q8TCT8)
inactive: [1] 0.062 | [2] -0.004 | [3] 0.032 | [4] -0.052 | [5] 0.049 | [6] 0.037 | [7] -0.014 | [8] -0.063 | [9] -0.069 | [10] 0.109

STAG2 (UniProt Q8N3U4)
inactive: [1] 0.021 | [2] -0.02 | [3] -0.1 | [4] 0.017 | [5] -0.018 | [6] -0.106 | [7] -0.031 | [8] -0.005 | [9] 0.051 | [10] -0.003

SPIN1 (UniProt Q9Y657)
inactive: [1] 0.02 | [2] -0.025 | [3] 0.005 | [4] -0.158 | [5] 0.031 | [6] -0.045 | [7] 0.019 | [8] -0.003 | [9] -0.032 | [10] 0.044

ST6GALNAC1 (UniProt Q9NSC7)
inactive: [1] -0.002 | [2] -0.086 | [3] 0.063 | [4] 0.057 | [5] 0.084 | [6] 0.03 | [7] -0.003 | [8] -0.093 | [9] -0.039 | [10] -0.202

SPNS1 (UniProt Q9H2V7)
inactive: [1] 0.088 | [2] -0.05 | [3] 0.005 | [4] -0.086 | [5] 0.008 | [6] -0.015 | [7] 0.019 | [8] -0.101 | [9] -0.023 | [10] -0.011

Random excerpt: 2 entries already listed
SPIN1 (UniProt Q9Y657)
inactive: [1] 0.02 | [2] -0.025 | [3] 0.005 | [4] -0.158 | [5] 0.031 | [6] -0.045 | [7] 0.019 | [8] -0.003 | [9] -0.032 | [10] 0.044

SPPL2A (UniProt Q8TCT8)
inactive: [1] 0.062 | [2] -0.004 | [3] 0.032 | [4] -0.052 | [5] 0.049 | [6] 0.037 | [7] -0.014 | [8] -0.063 | [9] -0.069 | [10] 0.109

(list continues)

SPN (UniProt P16150)
inactive: [1] -0.005 | [2] 0.189 | [3] 0.007 | [4] 0.001 | [5] -0.044 | [6] 0.006 | [7] -0.016 | [8] 0.058 | [9] -0.007 | [10] 0.044

SPTA1 (UniProt P02549)
inactive: [1] -0.101 | [2] -0.192 | [3] 0.083 | [4] 0.074 | [5] 0.028 | [6] 0.027 | [7] 0.299 | [8] 0.1 | [9] 0.2 | [10] -0.029

SQLE (UniProt Q14534)
inactive: [1] 0.071 | [2] 0.015 | [3] -0.056 | [4] 0.102 | [5] 0 | [6] -0.039 | [7] 0.017 | [8] 0.075 | [9] -0.048 | [10] -0.018

SPTB isoform 2 (UniProt P11277)
inactive: [1] -0.07 | [2] 0.291 | [3] -0.081 | [4] 0.569 | [5] 0.042 | [6] 0.087 | [7] 0.377 | [8] 0.157 | [9] 0.132 | [10] -0.102

SSNA1 (UniProt O43805)
inactive: [1] 0.003 | [2] 0.029 | [3] -0.008 | [4] -0.01 | [5] -0.008 | [6] 0.005 | [7] -0.052 | [8] -0.096 | [9] -0.025 | [10] 0.021

SSBP3 (UniProt Q9BWW4)
inactive: [1] -0.038 | [2] -0.054 | [3] -0.086 | [4] 0.007 | [5] 0.016 | [6] -0.078 | [7] 0.089 | [8] -0.026 | [9] -0.024 | [10] 0.077

SRSF1 (UniProt Q07955)
inactive: [1] 0.031 | [2] 0.105 | [3] 0.219 | [4] 0.031 | [5] -0.167 | [6] 0.137 | [7] 0.257 | [8] 0.015 | [9] 0.06 | [10] 0.047

SPCS3 (UniProt P61009)
inactive: [1] -0.02 | [2] 0.013 | [3] 0.017 | [4] -0.03 | [5] 0.032 | [6] -0.005 | [7] 0.005 | [8] -0.01 | [9] 0.001 | [10] 0.002

SPC25 (UniProt Q9HBM1)
inactive: [1] -0.013 | [2] -0.042 | [3] -0.086 | [4] 0.028 | [5] 0.009 | [6] -0.04 | [7] -0.01 | [8] -0.035 | [9] 0.025 | [10] 0.024

SPRYD7 (UniProt Q5W111)
inactive: [1] -0.003 | [2] -0.05 | [3] -0.089 | [4] -0.03 | [5] 0 | [6] -0.07 | [7] -0.022 | [8] 0.112 | [9] -0.01 | [10] -0.064

STAM (UniProt Q92783)
inactive: [1] 0.045 | [2] 0.05 | [3] 0.007 | [4] 0.007 | [5] 0 | [6] -0.019 | [7] -0.089 | [8] -0.072 | [9] 0.02 | [10] 0.073

STAT2 (UniProt P52630)
inactive: [1] -0.057 | [2] -0.18 | [3] -0.346 | [4] 0.295 | [5] -0.047 | [6] 0 | [7] 0.328 | [8] 0.112 | [9] 0.096 | [10] -0.279

SSR1 (UniProt P43307)
inactive: [1] 0.008 | [2] 0.028 | [3] 0.017 | [4] -0.019 | [5] 0.021 | [6] 0.008 | [7] 0.012 | [8] -0.024 | [9] -0.02 | [10] 0.02

SRSF5 (UniProt Q13243)
inactive: [1] -0.1 | [2] 0.002 | [3] 0.098 | [4] 0.175 | [5] -0.079 | [6] 0.195 | [7] 0.263 | [8] 0.081 | [9] 0.171 | [10] 0.031

STAT1 (UniProt P42224)
inactive: [1] -0.059 | [2] -0.307 | [3] 0.166 | [4] 0.149 | [5] -0.022 | [6] 0.121 | [7] 0.372 | [8] 0.171 | [9] 0.13 | [10] -0.027

SRA1 (UniProt Q9HD15)
inactive: [1] 0.01 | [2] -0.005 | [3] -0.012 | [4] 0.028 | [5] -0.025 | [6] -0.059 | [7] -0.02 | [8] -0.021 | [9] -0.044 | [10] 0.009

SREK1IP1 (UniProt Q8N9Q2)
inactive: [1] -0.041 | [2] -0.045 | [3] 0.238 | [4] -0.059 | [5] 0.053 | [6] 0.206 | [7] 0.091 | [8] -0.02 | [9] 0.001 | [10] -0.017

ST13 (UniProt P50502)
inactive: [1] -0.014 | [2] -0.021 | [3] -0.057 | [4] -0.015 | [5] 0.012 | [6] -0.043 | [7] -0.036 | [8] 0.008 | [9] -0.001 | [10] 0.005

SRP19 (UniProt P09132)
inactive: [1] 0.001 | [2] -0.019 | [3] 0.003 | [4] 0.131 | [5] -0.035 | [6] -0.043 | [7] 0.099 | [8] 0.033 | [9] 0.097 | [10] 0.002

SRPK2 isoform 2 (UniProt P78362)
inactive: [1] -0.074 | [2] -0.049 | [3] 0.34 | [4] 0.145 | [5] -0.011 | [6] 0.361 | [7] 0.278 | [8] 0.146 | [9] 0.061 | [10] -0.057

SPRYD4 (UniProt Q8WW59)
inactive: [1] 0.004 | [2] 0.034 | [3] -0.014 | [4] -0.022 | [5] 0.042 | [6] -0.065 | [7] -0.066 | [8] -0.007 | [9] -0.045 | [10] -0.003
